The exact form of at least one protein or probe is not confirmed. For part of these data: The comparison behind a weaker result is the experiment's own reference, which may not be listed here. For part of these data: At least one verdict was read from the data and is not stated in words by the source. For part of these data: Where cells or extracts were used, other partners may take part.

Data set [1] has as its system DdaA (A. radioresistens) (Acinetobacter radioresistens ATCC 43998). Nature of the data set: EMSA. Conditions: protein in 150 mM NaCl, 20 mM Tris-HCl pH 7.5.
Data set [2] concerns DdaA homolog Ca (Chrysiogenes arsenatis DSM 11915). The data set is described as follows: EMSA. The conditions noted are these: protein in 150 mM NaCl, 20 mM Tris-HCl pH 7.5.
Data set [3] concerns DdaA homolog Gs (Geoalkalibacter subterraneus Red1). Nature of the data set: EMSA. The conditions noted are these: protein in 150 mM NaCl, 20 mM Tris-HCl pH 7.5. In general terms: In EMSA bound probe runs differently from free probe, usually more slowly.
The test system of data set [4] is DdaA homolog Pa (Psychrobacter aquimaris KCTC 12254). The data set is described as follows: EMSA. The conditions noted are these: protein in 150 mM NaCl, 20 mM Tris-HCl pH 7.5.
In data set [5] the test system is DdaA native from lysate (Acinetobacter radioresistens ATCC 43998). Nature of the data set: pull-down + MS. The conditions noted are these: cell lysate; protein in an extract.

Regarding “TTTCCGGTCTGGGCAACACAATATGACGTGTAATTTTAACC (double strand) [recA promoter M2]”, in data set [1] (drastically impaired), the binding result is “binds more weakly”.

As for “TTTCCGGTCTGGGCGAGACAATATGACGTGTAATTTTAACC (double strand) [recA promoter M3]”, the binding result in data set [1] (drastically impaired), in data set [2] (weakened or lost), in data set [3] (weakened or lost) and in data set [4] (weakened or lost) was “binds more weakly” each time.

In the case of “TTTCCGGTCTGGGCGACACAATATGACGTGTAATTTTAACC (double strand) [recA promoter motif WT (AR-DDRM)]”, the binding result in data set [1], in data set [2], in data set [3] and in data set [4] was “binds” each time.

On to “TTTCCGGTCTGGGGGACACAATATGACGTGTAATTTTAACC (double strand) [recA promoter M1]”, for which the binding result in data set [1] (drastically impaired) is recorded as “binds more weakly”.

For “TTTCCGGTCTGGGCGACCCAATATGACGTGTAATTTTAACC (double strand) [recA promoter M4]”, the binding result in data set [1] (weak shifted band retained) is “binds more weakly”.

With “ATGACGTTTCATATGTGTTTTCCGGTCTGGGCGACACAATATGACGTGTAATTTTAACC (double strand) [recA promoter pull-down dsDNA]”, the binding result in data set [5] is “binds”.

Values taken from publication doi:10.1101/2024.11.11.622897.
